Measured values: patent US20120027756A1 (IRM, published 2012)
These are yes or no findings as the source states them, for the method shown. Some entries that bind do so weakly or less than the wild type.

Target: T1, Human TSLPR fragment 67-693 (human) (UniProt Q9HC73)
T1 sequence (receptor fragment, looked up): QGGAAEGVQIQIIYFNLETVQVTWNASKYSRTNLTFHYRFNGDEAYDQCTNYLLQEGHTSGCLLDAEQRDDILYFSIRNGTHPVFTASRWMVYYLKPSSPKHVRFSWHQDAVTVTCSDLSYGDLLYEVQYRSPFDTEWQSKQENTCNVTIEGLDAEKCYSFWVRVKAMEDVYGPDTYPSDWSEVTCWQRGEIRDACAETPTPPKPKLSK
Assay: ELISA of antibody 1D6.C9 on human TSLPR fragments (OD650); hFc bars as control for the fragment

B1: mouse anti-hTSLPR monoclonal antibody clone 1D6.C9 (antibody, V domains shown)
VH: QIQLGQSGPELKKPGETVKISCKASGYTFTTYGMSWVKQAPGKGLQWMGWINTYSGVPRYADDFKGRFAFSLETSASTAYLQIYNLKNEDTATYFCTREGFITTVVGAAGRFVYWGQGTLVTVSA
VL: DIVMTQSHKFMSTSVGDRVSITCKASQDVGTAVAWYQQKPGQSPKLLIYWASTRHTGVPDRFTGSGSGTDFTLTLNNVQSEDLADYFCQQYSTYPTFGSGTKLELKR
notes: also called mAb 1D6.C9; mouse anti-hTSLPR antibody
In the case of B1, the binding is reported as “binds”.
